The whole screen tested about 320,000 compounds, of which about 2,100 (0.66%) were called active. The inconclusive results got no clear call from the source; some entries with a clear call stand among them for comparison. The call rests on the fitted dose curve; in most records, active means well fitted inhibition curve with a large enough effect in the signal ratio, with a control signal flat (not every such curve was filed as active); inconclusive means small, poorly fitted or top-dose-only effect, or effect the other way, or a change in a side signal; inactive means flat fitted curve, though single readings scatter; the % refers to the signal ratio. Where the call is inconclusive, the potency comes from a doubtful curve fit.
assay: qHTS Assay for Lipid Storage Modulators in Drosophila S3 Cells; conditions: BODIPY lipid droplet fluorescence, 18-24 h, cells fed with added oleic acid; lipid storage change, negative = inhibition: at 46.1 µM (top of the series) unless noted
Outline: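 Drosophila S3 cells loaded with oleic acid (400 uM, as added) and compounds at several concentrations; lipid droplets imaged by 488-nm laser-scanning cytometry, 500–530 nm intensity and object ratio to cell channel. Percent activity normalized to 20 uM Triacsin C.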
On the % scale 0 is the no-effect control and ±100 the full control effect; potency means the concentration at half of the fitted maximal effect.

| Structure (SMILES) | lipid storage change, negative = inhibition | Potency |
| --- | --- | --- |
| O=Cc1ccccc1OCc1nnsc1Cl | inconclusive: 74.3% |  |
| C[n+]1ccccc1COc1ccc(C(C)(C)C)cc1 | inconclusive: 3.63% |  |
| CC(=O)C1[C@H](N(C)C)CC2C3CC=C4CC(O)CC[C@]4(C)C3CC[C@@]21C (stereo partly specified) | inconclusive: -46.1% |  |
| COc1c(Br)cc2c(C)c(C(=O)O)oc2c1Br | inactive: -6.54% |  |
| COc1ccc2nc(N3CCCC(C(=O)NCCc4ccc(OC)c(OC)c4)C3)sc2c1 (stereo unspecified) |  | inconclusive: 20.6 µM [falling, single point] |
| O/C(=C\c1nc2ccccc2[nH]1)c1cccs1 |  | inconclusive: 29.1 µM [falling, single point] |
| CCCN(CCC)Cc1c(C(=O)N/N=C/c2ccsc2)nnn1-c1nonc1N |  | inconclusive: 0.651 µM [falling, single point] |
| COc1ccc(OC)c(NC(=O)CCN2CCCCC2)c1 | inactive: -44.8% |  |
| CCOC(=O)c1c(-c2ccc(-c3ccccc3)cc2)csc1NC(=O)CNCCN(C)C |  | inconclusive: 29.1 µM [cytotoxic, single point] |
| O=C(/C=C/c1ccco1)N(Cc1ccccc1F)C1CCS(=O)(=O)C1 (stereo unspecified) | inactive: 23.1% |  |
| Cn1cc(C(=O)N/N=C/c2ccc3c(c2)OCO3)c2ccccc21 | inconclusive: 43.8% |  |
| O=C(CSc1nc(O)c(Cc2ccccc2)c(=O)[nH]1)Nc1nc2c(s1)CCCC2 |  | inconclusive: 29.1 µM [falling, single point] |
| COc1ccc(-c2cc(C(=O)Nc3cc(C)nn3-c3ccccc3)no2)cc1 | inconclusive: -44.3% [at 0.0737 µM] |  |
| COc1ccc(S(=O)(=O)N2CCOCC2)cc1NC(=O)COc1cccnc1[N+](=O)[O-] | inconclusive: 89.6% |  |
| Cc1ccc(S(=O)(=O)N2CCC(C(=O)NCC(C)(C)N3CCOCC3)CC2)c(C)c1 | inconclusive: -59.9% |  |
| O=C(O)c1cccnc1Sc1ccc(Br)cc1 |  | inconclusive: 25.9 µM [activator, single point] |
| COc1ccc(CNC(=O)CN2C(=O)NC(C)(c3cccc4ccccc34)C2=O)cc1OC (stereo unspecified) |  | active: 18.4 µM |
| Cn1c(=O)oc2cc(S(=O)(=O)N3CCN(c4cccc(Cl)c4)CC3)ccc21 | inconclusive: -29.5% |  |
| O=C(N/N=C\c1cc2c(cc1[N+](=O)[O-])OCO2)c1cccs1 |  | inconclusive: 2.59 µM [activator, partial curve] |
| COCCn1c(SCC(=O)Nc2sccc2C(N)=O)nnc1-c1ccncc1 | inconclusive: 10.9% |  |
| COc1ccc(NC(=O)COC(=O)/C=C/C(=O)OCC(=O)Nc2ccc(OC)c(Cl)c2)cc1Cl | inconclusive: -47% |  |
| NS(=O)(=O)c1ccc(NC=C2C(=O)OC3(CCCCC3)OC2=O)cc1 | inconclusive: 16.5% |  |
| COc1ccc(CCNC(=O)c2c(O)c3ccccc3n(C)c2=O)cc1 | inconclusive: 326% |  |
| COc1ccc([N+](=O)[O-])cc1NC(=O)C(C)OC(=O)C1CC(=O)N(Cc2ccco2)C1 (stereo unspecified) | inconclusive |  |
| Cc1cc(N=Nc2ccccc2)c(NCC(O)C(O)C(O)CO)cc1C (stereo unspecified) | inconclusive: -11.8% |  |
| Cc1oc(-c2ccc(Cl)cc2)nc1CN1CCC(C(=O)NCCCN2CCCC2=O)CC1 | inconclusive: 3.14% |  |

Copied from the list.
Potency with O=C(CSc1nc(O)c(Cc2ccccc2)c(=O)[nH]1)Nc1nc2c(s1)CCCC2 reads inconclusive: 29.1 µM [falling, single point]
Potency with COc1ccc2nc(N3CCCC(C(=O)NCCc4ccc(OC)c(OC)c4)C3)sc2c1 (stereo unspecified) reads inconclusive: 20.6 µM [falling, single point]

Next part

| Structure (SMILES) | lipid storage change, negative = inhibition | Potency |
| --- | --- | --- |
| COCCn1c(SCC(=O)Nc2sc(C)c(C)c2C#N)nnc1-c1ccc(OC)cc1 | inconclusive: -66.9% |  |
| COc1ccc(Cn2c(=S)[nH]c3cc(C(=O)NCCCN4CCOCC4)ccc3c2=O)cc1 | inconclusive: 84.8% |  |
| CC(=O)Nc1ccc(NC(=O)CSc2nnc(-c3ccco3)n2Cc2ccco2)cc1 |  | inconclusive: 3.66 µM [activator, partial curve] |
| Nc1ncc2c(n1)CCN(c1ccc([N+](=O)[O-])cc1)C2 |  | active: 23.1 µM |
| Cc1ccc2c(Cl)cc(Cl)c(OCC(=O)Nc3ccc(C)c(S(=O)(=O)N(C)C)c3)c2n1 |  | inconclusive: 0.231 µM [activator, full curve, poor fit] |
| COc1ccc(NC(=O)CSc2nc3ccsc3c(=O)n2CCC(=O)O)c(OC)c1 | inconclusive: 98% |  |
| CCOc1ccc(OCCCC(=O)N(CC)CC(=O)Nc2c(F)cccc2F)cc1 |  | inconclusive: 16.4 µM [falling, single point] |
| COc1ccc(N2CCN(C(=O)c3ccc(CNS(=O)(=O)c4cc(C)ccc4C)cc3)CC2)cc1 |  | active: 7.31 µM |
| O=C(COc1ccc2c3c(c(=O)oc2c1)CCC3)N[C@@H](Cc1ccccc1)C(=O)O | inconclusive: 37% |  |
| CN(CC(=O)Nc1cccc(F)c1)C(=O)c1ccc(OCC2CCCO2)cc1 (stereo unspecified) |  | inconclusive: 6.51 µM [falling, single point] |
| COc1ccc(/C=C2/CC/C(=C\c3ccc(OC)c(OC)c3OC)C2=O)c(OC)c1OC | inconclusive: -7.76% |  |
| COc1ccc(C(=O)NC(=S)NCc2ccco2)cc1 | inconclusive: 41.1% |  |
| CC1Sc2ccc(C(=O)Nc3ccc(S(=O)(=O)N(C)C)cc3)cc2NC1=O (stereo unspecified) | inconclusive: -7.48% |  |
| CCCCn1c(N)c(N(CC(C)C)C(=O)c2c(CC)noc2C)c(=O)[nH]c1=O |  | inconclusive: 16.4 µM [activator, single point] |
| Cc1ccc(-c2nc3ccsc3c(=O)[nH]2)cc1 | inconclusive: 28.7% |  |
| Cc1nn(C(=O)Cn2cc([N+](=O)[O-])cn2)c(C)c1Cl | inconclusive: -6.26% |  |
| CCn1c2ccccc2c2cc(NC(=S)N3CCOCC3)ccc21 | inconclusive: -13.9% |  |
| Cc1cc(NCc2ccco2)n2c(nc3ccccc32)c1C#N |  | inconclusive: 0.0046 µM [falling, full curve, poor fit] |
| Cc1ccc(-n2c(C)cc(C)c(C#N)c2=O)cc1Cl | inconclusive: -10.3% |  |
| COCCCNC(=O)C(C#N)c1nc2ccccc2nc1N1CCCC1 (stereo unspecified) | inconclusive: -32.9% [at 0.0737 µM] |  |
| CCCCn1c(SCC(=O)Nc2cc(C)on2)nc2cc(S(N)(=O)=O)ccc21 | inconclusive: -13.1% |  |
| COc1ccc(C(=O)CCNc2ccc3c(c2)OCCO3)cc1 | inconclusive: 7.66% |  |
| COc1cccc(NS(=O)(=O)CC23CCC(CC2=O)C3(C)C)c1 (stereo unspecified) |  | active: 3.66 µM |
| Cc1ccc(-c2ccc(C(=O)NCCCNC(=O)c3cnccn3)o2)cc1Cl | inconclusive: 39.8% |  |
| CCOC(=O)CN1C(=O)C(=O)N(Cc2ccccc2F)C1=O | inconclusive: -4.94% |  |
| COc1cc2c(cc1OC)C(C)N(C(=O)c1cc3c(C)cc(C)cc3[nH]1)CC2 (stereo unspecified) |  | inconclusive: 3.26 µM [activator, full curve, poor fit] |

Two of the compounds above, field by field:
COc1ccc(Cn2c(=S)[nH]c3cc(C(=O)NCCCN4CCOCC4)ccc3c2=O)cc1
  lipid storage change, negative = inhibition: inconclusive: 84.8%
CC(=O)Nc1ccc(NC(=O)CSc2nnc(-c3ccco3)n2Cc2ccco2)cc1
  Potency: inconclusive: 3.66 µM [activator, partial curve]

Continued.

| Structure (SMILES) | lipid storage change, negative = inhibition | Potency |
| --- | --- | --- |
| CC(C)Oc1ccc(CNC(=O)c2cc(S(=O)(=O)N3CCOCC3)cn2C)cc1 | inconclusive: -12.3% |  |
| CC(C)(C)n1ncc2c(=O)n(Cc3ccccc3Br)cnc21 |  | inconclusive: 0.164 µM [activator, single point] |
| Cc1ccc(S(=O)(=O)N2CCCC(C(=O)N(Cc3cccs3)C3CC3)C2)cc1 (stereo unspecified) | inconclusive: -9.04% |  |
| CC(C)c1ccc(NC(=O)CN2C(=O)NC3(CCCC3)C2=O)cc1 | inconclusive: -9.66% |  |
| Fc1cccc(CSc2nc3ncccc3[nH]2)c1 | inconclusive: -17.2% |  |
| Cc1[nH]c2ccccc2c1C(Nc1nccs1)c1ccncc1 (stereo unspecified) | inconclusive: -11.7% |  |
| Cc1ccc(S(=O)(=O)Nc2ccc(N3CCN(C)CC3)nc2)cc1 |  | inconclusive: 2.06 µM [falling, full curve, poor fit] |
| CCN(CC(=O)Nc1ccccc1C(F)(F)F)C(=O)c1ccc2c(c1)NC(=O)CS2 |  | inconclusive: 0.366 µM [activator, full curve, poor fit] |
| O=[N+]([O-])c1ccc(S(=O)(=O)N2CCN=C2SCc2ccc(F)cc2)cc1 |  | inconclusive: 32.6 µM [activator, single point] |
| Cc1ccc(NC(=O)CN(C)CC(=O)Nc2cccc(F)c2)cc1[N+](=O)[O-] | inconclusive: -14.8% |  |
| COCCN(C(=O)COC(=O)COc1ccc(Cl)c(C)c1)c1c(N)n(Cc2ccccc2)c(=O)[nH]c1=O | inconclusive: 28.9% |  |
| COc1ccc(CN(C(=O)CCC(=O)Nc2cc(C)on2)C(C(=O)NC(C)(C)C)c2cccc(OC)c2OC)cc1 (stereo unspecified) | inconclusive: -0.817% |  |
| COCCN(C(=O)COC(=O)C1=COCCO1)c1c(N)n(Cc2ccccc2)c(=O)[nH]c1=O | inconclusive: 16.6% |  |
| CC(=O)Nc1ccc(S(=O)(=O)NNC(=S)NCc2ccco2)cc1 | inconclusive: -4.23% |  |
| Cc1ccc(/C=N/NC(=O)c2cc3ccccc3cc2O)o1 | inconclusive: 96.3% |  |
| CCc1oc2c(C)c(O)ccc2c(=O)c1-c1ccc2ccccc2n1 | inconclusive: -2.26% |  |
| CCCCOC(=O)Nc1sc2c(c1C(=O)OC)CCC2 | inconclusive: -1.6% |  |
| NC(=O)Cn1cnc(-c2ccccc2)c1 |  | inconclusive: 7.31 µM [falling, single point] |
| Oc1ccccc1C(=S)N1CCCC1 |  | inconclusive: 29.1 µM [activator, single point] |
| COc1cccc(OC)c1C(=O)Nc1cccc2c1CCCC2 |  | inconclusive: 10.3 µM [activator, partial curve] |
| CCN(Cc1ccccc1)C(=O)CN1C(=O)c2ccccc2C1=O | inconclusive: 12.8% |  |
| O=C(CSc1nc(N2CCCCC2)nc(N2CCCCC2)n1)c1ccccc1 |  | inconclusive: 0.291 µM [activator, partial curve] |
| COc1ccc(CN2CCNC(=O)C2CC(=O)N2CCCN(C(C)=O)CC2)c(OC)c1 (stereo unspecified) | inconclusive: -14.7% |  |
| CC(C(=O)NCc1ccccc1)n1cc([N+](=O)[O-])cn1 (stereo unspecified) | inconclusive: 20.3% |  |
